{"source": "PubChem BioAssay AID686938 (Drosophila RNAi Screening Center, 2013)", "screen": "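Looking for CRAC channel components and the factors controlling them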 (primary screen)", "cell system": "Drosophila S2R+ cells", "reagent": "long dsRNA against Drosophila genes, about 0.25 µg dsRNA per well, roughly 10,000 cells", "duration": "5 days of knock-down before the calcium assay", "treatment": "thapsigargin (SERCA pump blocker) to empty calcium stores; entry signal taken 4 min after adding it", "read-out": "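Duplicate raw fluo-4 intensities per well from a plate reader, at rest and four minutes after thapsigargin emptied calcium stores; entry-to-rest ratio filled for only some wells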", "direction": "calcium entry signal: higher = stronger calcium signal after store depletion; resting calcium signal: higher = higher resting calcium signal", "units": "calcium entry signal in fluorescence units; resting calcium signal in fluorescence units", "rule for the call": "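Called when the plate z-score of the entry-to-rest ratio, mean of duplicates, falls below −3; wells with low overall dye signal (Fmax z below −2) or more than five off-targets excluded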", "calls": "active = strongly reduced calcium entry; inactive = no strong reduction", "note": "The deposit covers about 23,000 reagents; shown is an unselected part of those with a known target gene and a result. In the full data, 75 (0.33%) were called active. 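Raw plate signals without normalisation; calls rest on plate z-scores that were not deposited; ratio present for only 364 wells.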 Unmarked entries are inactive. Not stated in the record: the dose of the treatment."}
{"gene": "ND-B14", "dsRNA": "DRSC07029", "calcium entry signal, replicate 1": 4.43e7, "calcium entry signal, replicate 2": 4.52e7, "resting calcium signal, replicate 1": 2.01e7, "resting calcium signal, replicate 2": 1.70e7}
{"gene": "Bhmt", "dsRNA": "DRSC02079", "calcium entry signal, replicate 1": 4.15e7, "calcium entry signal, replicate 2": 4.97e7, "resting calcium signal, replicate 1": 2.09e7, "resting calcium signal, replicate 2": 2.27e7}
{"gene": "betaNACtes4", "dsRNA": "DRSC19801", "calcium entry signal, replicate 1": 3.43e7, "calcium entry signal, replicate 2": 3.44e7, "resting calcium signal, replicate 1": 1.86e7, "resting calcium signal, replicate 2": 1.71e7}
{"gene": "Dbp45A", "dsRNA": "DRSC07395", "calcium entry signal, replicate 1": 3.76e7, "calcium entry signal, replicate 2": 4.08e7, "resting calcium signal, replicate 1": 1.66e7, "resting calcium signal, replicate 2": 1.81e7}
{"gene": "mthl8", "dsRNA": "DRSC08211", "calcium entry signal, replicate 1": 3.65e7, "calcium entry signal, replicate 2": 3.56e7, "resting calcium signal, replicate 1": 1.64e7, "resting calcium signal, replicate 2": 1.74e7}
{"gene": "mthl8", "dsRNA": "DRSC08311", "calcium entry signal, replicate 1": 3.59e7, "calcium entry signal, replicate 2": 4.47e7, "resting calcium signal, replicate 1": 1.75e7, "resting calcium signal, replicate 2": 1.91e7}
{"gene": "CG6765", "dsRNA": "DRSC10706", "calcium entry signal, replicate 1": 2.71e7, "calcium entry signal, replicate 2": 3.72e7, "resting calcium signal, replicate 1": 1.38e7, "resting calcium signal, replicate 2": 1.67e7}
{"gene": "DIP-eta", "dsRNA": "DRSC02342", "calcium entry signal, replicate 1": 2.62e7, "calcium entry signal, replicate 2": 2.59e7, "resting calcium signal, replicate 1": 1.36e7, "resting calcium signal, replicate 2": 1.41e7}
{"gene": "stas", "dsRNA": "DRSC20104", "calcium entry signal, replicate 1": 6.11e7, "calcium entry signal, replicate 2": 5.53e7, "resting calcium signal, replicate 1": 2.57e7, "resting calcium signal, replicate 2": 2.17e7}
{"gene": "CG3108", "dsRNA": "DRSC18280", "calcium entry signal, replicate 1": 2.82e7, "calcium entry signal, replicate 2": 2.94e7, "resting calcium signal, replicate 1": 1.38e7, "resting calcium signal, replicate 2": 1.37e7}
{"gene": "Itpr", "dsRNA": "DRSC12354", "calcium entry signal, replicate 1": 3.59e7, "calcium entry signal, replicate 2": 2.98e7, "resting calcium signal, replicate 1": 1.74e7, "resting calcium signal, replicate 2": 1.42e7}
{"gene": "CG17917", "dsRNA": "DRSC12570", "calcium entry signal, replicate 1": 3.24e7, "calcium entry signal, replicate 2": 2.99e7, "resting calcium signal, replicate 1": 1.69e7, "resting calcium signal, replicate 2": 1.42e7}
{"gene": "CG15308", "dsRNA": "DRSC17995", "calcium entry signal, replicate 1": 4.12e7, "calcium entry signal, replicate 2": 4.22e7, "resting calcium signal, replicate 1": 1.85e7, "resting calcium signal, replicate 2": 1.99e7}
{"gene": "Ugt36D1", "dsRNA": "DRSC02600", "calcium entry signal, replicate 1": 6.31e7, "resting calcium signal, replicate 1": 2.92e7}
{"gene": "CG5781", "dsRNA": "DRSC02893", "calcium entry signal, replicate 1": 4.20e7, "calcium entry signal, replicate 2": 2.83e7, "resting calcium signal, replicate 1": 1.84e7, "resting calcium signal, replicate 2": 1.36e7}
{"gene": "CG32022", "dsRNA": "DRSC09678", "calcium entry signal, replicate 1": 3.36e7, "calcium entry signal, replicate 2": 5.48e7, "resting calcium signal, replicate 1": 1.59e7, "resting calcium signal, replicate 2": 2.37e7}
{"gene": "CG11370", "dsRNA": "DRSC11653", "calcium entry signal, replicate 1": 1.59e7, "calcium entry signal, replicate 2": 2.49e7, "resting calcium signal, replicate 1": 9.55e6, "resting calcium signal, replicate 2": 1.27e7}
{"gene": "CG1360", "dsRNA": "DRSC06406", "calcium entry signal, replicate 1": 3.20e7, "calcium entry signal, replicate 2": 4.22e7, "resting calcium signal, replicate 1": 1.78e7, "resting calcium signal, replicate 2": 1.89e7}
{"gene": "tai", "dsRNA": "DRSC02207", "calcium entry signal, replicate 1": 3.96e7, "calcium entry signal, replicate 2": 4.93e7, "resting calcium signal, replicate 1": 1.93e7, "resting calcium signal, replicate 2": 2.25e7}
{"gene": "tai", "dsRNA": "DRSC02673", "calcium entry signal, replicate 1": 3.37e7, "calcium entry signal, replicate 2": 5.17e7, "resting calcium signal, replicate 1": 1.71e7, "resting calcium signal, replicate 2": 2.32e7}
{"gene": "AdipoR", "dsRNA": "DRSC15767", "calcium entry signal, replicate 1": 3.55e7, "calcium entry signal, replicate 2": 2.83e7, "resting calcium signal, replicate 1": 1.66e7, "resting calcium signal, replicate 2": 1.38e7}

Just “resting calcium signal, replicate 1” (2 entries from above):
betaNACtes4 [DRSC19801]	1.86e7
Dbp45A [DRSC07395]	1.66e7
